Results on one molecule are retold here after the supplement of paper PMC8728848.

Common to all, as to assay: glycan array binding signal (z-score within array); higher = stronger binding
Holding throughout (conditions): glycan notation: IUPAC condensed, linker removed

Experiment [1] concerns the target GlcNAc(b1-2)[GlcNAc(b1-6)]Man(a1-6)[GlcNAc(b1-2)Man(a1-3)]Man(b1-4)GlcNAc(b1-4)[Fuc(a1-6)]GlcNAc. The method in brief:
(§1)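 Glycan array data were curated from 3228 arrays in the Consortium for Functional Glycomics database and kept only where the protein sequence was available. Glycan names were converted to IUPAC-condensed notation, and columns mapping to the same glycan were averaged. The binding signal is a within-array Z-score, averaged across arrays of the same protein sequence at different concentrations or buffers and across linkers. Negative Z-scores can be read as non-binding.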

The target of experiment [2] is GlcNAc(b1-2)[GlcNAc(b1-6)]Man(a1-6)[GlcNAc(b1-2)Man(a1-3)][GlcNAc(b1-4)]Man(b1-4)GlcNAc(b1-4)GlcNAc. The essentials: as §1
The target in experiment [3] is GlcNAc(b1-2)[GlcNAc(b1-6)]Man(a1-6)[GlcNAc(b1-4)][GlcNAc(b1-2)Man(a1-3)]Man(b1-4)GlcNAc(b1-4)GlcNAc. The method in brief:
as §1

In the next experiment the target is GlcNAc(b1-3)Fuc. The method in brief: as §1
In the next experiment the target is GlcNAc(b1-3)Gal. The method in brief:
as §1

Experiment [4] addresses GlcNAc(b1-3)Gal(b1-3)GalNAc. The essentials:
as §1

The target in the next experiment is GlcNAc(b1-3)Gal(b1-4)Glc. The method in brief: as §1
For experiment [5], the target named is GlcNAc(b1-3)Gal(b1-4)GlcNAc. The method in brief: as §1
Experiment [6] deals with GlcNAc(b1-3)Gal(b1-4)GlcNAc(b1-2)Man(a1-3)[GlcNAc(b1-3)Gal(b1-4)GlcNAc(b1-2)Man(a1-6)]Man(b1-4)GlcNAc(b1-4)GlcNAc. The method in brief: as §1
Experiment [7] has as its target GlcNAc(b1-3)Gal(b1-4)GlcNAc(b1-2)Man(a1-3)[GlcNAc(b1-3)Gal(b1-4)GlcNAc(b1-2)Man(a1-6)]Man(b1-4)GlcNAc(b1-4)[Fuc(a1-6)]GlcNAc. The method in brief: as §1
Experiment [8] has as its target GlcNAc(b1-3)Gal(b1-4)GlcNAc(b1-2)[GlcNAc(b1-3)Gal(b1-4)GlcNAc(b1-6)]Man(a1-6)[GlcNAc(b1-3)Gal(b1-4)GlcNAc(b1-2)Man(a1-3)]Man(b1-4)GlcNAc(b1-4)GlcNAc. The essentials:
as §1

The target of experiment [9] is GlcNAc(b1-3)Gal(b1-4)GlcNAc(b1-3)Gal(b1-4)GlcNAc. The essentials: as §1
For experiment [10], the target named is GlcNAc(b1-3)Gal(b1-4)GlcNAc(b1-3)Gal(b1-4)GlcNAc(b1-2)Man(a1-3)[GlcNAc(b1-3)Gal(b1-4)GlcNAc(b1-3)Gal(b1-4)GlcNAc(b1-2)Man(a1-6)]Man(b1-4)GlcNAc(b1-4)GlcNAc. The method in brief:
as §1

Experiment [11] concerns the target GlcNAc(b1-3)Gal(b1-4)GlcNAc(b1-3)Gal(b1-4)GlcNAc(b1-2)Man(a1-3)[GlcNAc(b1-3)Gal(b1-4)GlcNAc(b1-3)Gal(b1-4)GlcNAc(b1-2)Man(a1-6)]Man(b1-4)GlcNAc(b1-4)[Fuc(a1-6)]GlcNAc. The essentials:
as §1

Experiment [12] addresses GlcNAc(b1-3)Gal(b1-4)GlcNAc(b1-3)Gal(b1-4)GlcNAc(b1-2)[GlcNAc(b1-3)Gal(b1-4)GlcNAc(b1-3)Gal(b1-4)GlcNAc(b1-6)]Man(a1-6)[GlcNAc(b1-3)Gal(b1-4)GlcNAc(b1-3)Gal(b1-4)GlcNAc(b1-2)Man(a1-3)]Man(b1-4)GlcNAc(b1-4)[Fuc(a1-6)]GlcNAc. The essentials:
as §1

In experiment [13] the target is GlcNAc(b1-3)Gal(b1-4)GlcNAc(b1-3)Gal(b1-4)GlcNAc(b1-3)Gal(b1-4)GlcNAc(b1-2)Man(a1-3)[GlcNAc(b1-3)Gal(b1-4)GlcNAc(b1-3)Gal(b1-4)GlcNAc(b1-3)Gal(b1-4)GlcNAc(b1-2)Man(a1-6)]Man(b1-4)GlcNAc(b1-4)GlcNAc. The essentials:
as §1

In experiment [14] the target is GlcNAc(b1-3)Gal(b1-4)GlcNAc(b1-3)Gal(b1-4)GlcNAc(b1-3)Gal(b1-4)GlcNAc(b1-2)Man(a1-3)[GlcNAc(b1-3)Gal(b1-4)GlcNAc(b1-3)Gal(b1-4)GlcNAc(b1-3)Gal(b1-4)GlcNAc(b1-2)Man(a1-6)]Man(b1-4)GlcNAc(b1-4)[Fuc(a1-6)]GlcNAc. The essentials: as §1
Experiment [15] deals with GlcNAc(b1-3)Gal(b1-4)GlcNAc(b1-3)Gal(b1-4)GlcNAc(b1-3)Gal(b1-4)GlcNAc(b1-2)[GlcNAc(b1-3)Gal(b1-4)GlcNAc(b1-3)Gal(b1-4)GlcNAc(b1-3)Gal(b1-4)GlcNAc(b1-6)]Man(a1-6)[GlcNAc(b1-3)Gal(b1-4)GlcNAc(b1-3)Gal(b1-4)GlcNAc(b1-3)Gal(b1-4)GlcNAc(b1-2)Man(a1-3)]Man(b1-4)GlcNAc(b1-4)[Fuc(a1-6)]GlcNAc. The method in brief:
as §1

In experiment [16] the target is GlcNAc(b1-3)Gal(b1-4)GlcNAc(b1-3)Gal(b1-4)GlcNAc(b1-3)Gal(b1-4)GlcNAc(b1-3)Gal(b1-4)GlcNAc(b1-2)Man(a1-3)[GlcNAc(b1-3)Gal(b1-4)GlcNAc(b1-3)Gal(b1-4)GlcNAc(b1-3)Gal(b1-4)GlcNAc(b1-3)Gal(b1-4)GlcNAc(b1-2)Man(a1-6)]Man(b1-4)GlcNAc(b1-4)GlcNAc. The essentials:
as §1

For experiment [17], the target named is GlcNAc(b1-3)Gal(b1-4)GlcNAc(b1-3)Gal(b1-4)GlcNAc(b1-3)Gal(b1-4)GlcNAc(b1-3)Gal(b1-4)GlcNAc(b1-2)Man(a1-3)[GlcNAc(b1-3)Gal(b1-4)GlcNAc(b1-3)Gal(b1-4)GlcNAc(b1-3)Gal(b1-4)GlcNAc(b1-3)Gal(b1-4)GlcNAc(b1-2)Man(a1-6)]Man(b1-4)GlcNAc(b1-4)[Fuc(a1-6)]GlcNAc. The essentials: as §1
For experiment [18], the target named is GlcNAc(b1-3)Gal(b1-4)GlcNAc(b1-3)Gal(b1-4)GlcNAc(b1-3)Gal(b1-4)GlcNAc(b1-3)Gal(b1-4)GlcNAc(b1-2)[GlcNAc(b1-3)Gal(b1-4)GlcNAc(b1-3)Gal(b1-4)GlcNAc(b1-3)Gal(b1-4)GlcNAc(b1-3)Gal(b1-4)GlcNAc(b1-6)]Man(a1-6)[GlcNAc(b1-3)Gal(b1-4)GlcNAc(b1-3)Gal(b1-4)GlcNAc(b1-3)Gal(b1-4)GlcNAc(b1-3)Gal(b1-4)GlcNAc(b1-2)Man(a1-3)]Man(b1-4)GlcNAc(b1-4)[Fuc(a1-6)]GlcNAc. The method in brief:
as §1

Experiment [19] deals with GlcNAc(b1-3)Gal(b1-4)GlcNAc(b1-3)Gal(b1-4)GlcNAc(b1-3)GalNAc. The essentials: as §1

The other results are listed elsewhere or left out.

B1: LlpA1 (Pseudomonas fluorescens), Q4KHC3 (protein)
chain: MGSSHHHHHHSSGLVPRGSHMAWIRYDFTDNGSSVLPARYYMAPNQYLQSPNKRFKLLFQADGNLALYDGAQLAWVADQNTPFTNVSKGNKKDPMMVFMNYGFVLDDPLRGRIWSTTPSDPTMGSREDASLRAFTQVQDDGNIVTVDTIPHWYAPNGRVFTPAVGAAMIIGGTTELVPGQFYSAGEHSLVFQGDGNLVVYGPNSSVIWATYTQNKGGVRCVMQEDGNLVIYAANNGVVWQSGTGGHPGATIRLQANGSFTIVTERPVWARFGYTPTIKPPRVFYPDHKWKTGSYTWNNVF
Regarding B1, the “glycan array binding signal (z-score)” value is -0.125 in experiment [1]; 0.061 in experiment [2]; -0.662 in experiment [3]; -0.101 with GlcNAc(b1-3)Fuc; -0.357 with GlcNAc(b1-3)Gal; 0.303 in [4]. Moreover, the “glycan array binding signal (z-score)” value was -0.09 with GlcNAc(b1-3)Gal(b1-4)Glc; -0.439 in experiment [5]; -0.487 in experiment [6]; 0.23 in experiment [7]; 0.694 in experiment [8]; -0.81 in experiment [9]. The “glycan array binding signal (z-score)” value in [10] was 0.156; in experiment [11], 1.46; in [12], 0.68; in experiment [13], 0.013; in experiment [14], 1.27; in experiment [15], -0.254. In addition, the “glycan array binding signal (z-score)” value in [16] is 0.226; in experiment [17] it was 0.726; in experiment [18] it was 0.306; in [19], -0.217.
